# In PubChem BioAssay AID504444 (National Center for Advancing Translational Sciences (NCATS), 2011):
# Among all 360,000 compounds or so, about 7,500 (2.1%) were called active. This list was built around the results that the source calls inconclusive (neither active nor inactive); the mix of calls is not that of the screen. Calls follow the shape of the dose curve; as a rule, active = well fitted inhibition curve with a large enough effect; inconclusive = small, poorly fitted or top-dose-only effect, or effect the other way; inactive = flat fitted curve, though single readings scatter. Potencies of inconclusive entries are doubtful fits and often do not repeat.
# Experiment: Nrf2 qHTS screen for inhibitors; also: nearly all actives have a fitted effect of over 60% in size
# Settings: A549 ARE-Fluc reporter, luciferase luminescence, 18-24 h; activity change, negative = inhibition: at 46 µM (top of the series)
# Outline: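 Nrf2 function is reported as luminescence of an ARE-controlled luciferase in A549 cells. Compounds were tested at several concentrations, and a CellTiter-Fluor read on the same wells flagged cytotoxicity.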
# % is scaled to controls: 0 for no effect and ±100 for the full control effect; potency is read from the fitted curve at half-maximal effect.
Compound,Potency,"activity change, negative = inhibition"
N#Cc1c(NC(=O)C2C3C=CC(C3)C2C(=O)O)sc2c1CCCCC2 (configuration not stated),"inconclusive: 32.6 µM [falling, single point]",–
CSc1nc(Cl)c(Cc2ccc(OC(C)C)cc2)c(N2CCOCC2)n1,"inconclusive: 25.9 µM [falling, partial curve, poor fit]",–
CCS(=O)(=O)N1CCc2cc(C(=O)NCc3ccccc3Cl)ccc21,"inconclusive: 29.1 µM [falling, single point]",–
COc1ccc(C(=O)NC(=S)NNC(=O)c2ccccc2C)cc1,"inconclusive: 29.1 µM [falling, single point]",–
CCOC(=O)c1[nH]c(C)c(C(=O)Nc2ccc(C)c(F)c2)c1C,"inconclusive: 2.31 µM [falling, partial curve, poor fit]",–
O=S(=O)(c1ccccc1)N1CCN(CC(O)COc2ccc3c(c2)CCC3)CC1 (configuration not stated),active: 16.4 µM,–
CN(C)S(=O)(=O)c1ccc(Cl)c(NC(=O)CN2CCC(Cc3ccccc3)CC2)c1,–,inactive: -21.8%
O=C(NNc1ccccc1)NC(Cc1ccccc1)C(=O)O (configuration not stated),–,inactive: -0.815%
COc1cccc(C(=O)CC(C#N)c2ccc(F)cc2)c1 (configuration not stated),"inconclusive: 23.1 µM [falling, partial curve, poor fit]",–
N#C/C(=N\Nc1ccc(F)cc1)C(=N)N1CCCCCC1,"inconclusive: 4.11 µM [activator, full curve]",–
Oc1ccccc1C1SC(c2ccccc2O)SC(c2ccccc2O)S1 (configuration not stated),–,inactive: 21.9%
CC(=O)c1c(C)nc(Nc2nc3ccccc3s2)nc1C,"inconclusive: 5.17 µM [activator, partial curve]",–
CCc1cccc(C)c1NC(=O)CCS(=O)(=O)c1ccc2c(c1)oc(=O)n2C,–,inactive: 6.27%
CCCCCCC#Cc1cncc(C(=O)NNC(=O)Nc2cc(Cl)cc(Cl)c2)c1,–,inactive: -22.2%
CCCN1C(=O)/C(=C2/C=Cc3ccccc3N2CC)SC1=S,–,inactive: -27.9%
Cc1ccc(C)c(S(=O)(=O)N2CCCOC2CNC(=O)C(=O)NCCC2=CCCCC2)c1 (configuration not stated),"inconclusive: 18.4 µM [falling, partial curve, poor fit]",–
O=C(Cc1ccc(Cl)cc1)Nc1ccc2oc(-c3ccccc3F)nc2c1,"inconclusive: 5.17 µM [falling, partial curve, poor fit]",–
COc1ccccc1-c1noc(CCCC(=O)NC2CCCCC2)n1,"inconclusive: 2.06 µM [activator, partial curve, poor fit]",–
CC(C)(C)C(=O)Nc1cc(S(=O)(=O)Nc2ccc(Cl)cc2)ccc1Cl,"inconclusive: 32.6 µM [falling, single point]",–
CN(C(=S)NC(=O)CCCOc1ccc(Cl)cc1Cl)c1ccccc1,–,inactive: 11%
O=C(/C=C/c1ccc(Cl)cc1Cl)Nc1cccc(S(=O)(=O)NC2=NCCCCC2)c1,"inconclusive: 16.4 µM [falling, single point]",–
Cc1cc2n(n1)CCC(=O)N2Cc1ccc(C(=O)Nc2cccc(C(F)(F)F)c2)cc1,"inconclusive: 11.6 µM [falling, partial curve, poor fit]",–
CCOc1ccccc1-n1nnnc1SCC(=O)NC(=O)NCc1ccco1,"inconclusive: 18.4 µM [falling, partial curve, poor fit]",–

Compound,Potency,"activity change, negative = inhibition"
O=C(c1ccc(F)cc1)N1CCCC(C(=O)N2CCN(c3ccccc3)CC2)C1 (configuration not stated),–,inactive: -1.76%
CCCCCn1c(=O)[nH]c2cc(C(=O)N3CCN(Cc4ccc5c(c4)OCO5)CC3)ccc2c1=O,active: 0.82 µM,–
O=C(C1CCC(=O)N(C2CCCC2)C1)N1CCC(Oc2ccccc2Cl)CC1 (configuration not stated),"inconclusive: 8.2 µM [falling, partial curve, poor fit]",–
COC(=O)c1ccccc1NC(=O)c1cc(-c2ccco2)on1,"inconclusive: 2.59 µM [activator, full curve, poor fit]",–
O=C(Nc1nccs1)c1ccc(N2CCOCC2)c([N+](=O)[O-])c1,"inconclusive: 1.16 µM [activator, partial curve, poor fit]",–
CCCOc1ccc2[nH]c(C(=O)N/N=C/c3cc(OC)c(OC)c(OC)c3)cc2c1,"inconclusive: 29.1 µM [falling, partial curve, poor fit]",–
CN(C)/C=C1\C(=O)N(c2ccc(Cl)c(Cl)c2)CS1(=O)=O,"inconclusive: 3.26 µM [activator, full curve]",–
N#Cc1cccc(NC(=O)COc2ccc(-n3ccnc3)cc2)c1,"inconclusive: 5.8 µM [falling, partial curve, poor fit]",–
CCCc1nnc(NC(=O)Nc2ccccc2OC)s1,–,inactive: 10.3%
O=C(c1ccccc1Nc1ccc(SC(F)F)cc1)N1CCCCCC1,"inconclusive: 29.1 µM [falling, single point]",–
CC(CN1CCOCC1)OC(=O)C(c1ccccc1)c1ccccc1 (configuration not stated),"inconclusive: 23.1 µM [activator, single point]",–
COc1cccc(-c2csc(N3CCN(C(=S)NCC(C)C)CC3)n2)c1,active: 18.4 µM,–
Nc1nc(N2CCCCC2)nc(N(c2ccccc2)c2ccccc2)n1,–,inactive: 2.64%
O=C1/C(=C/c2cccnc2)CC/C1=C\c1cccnc1,"inconclusive: 32.6 µM [falling, single point]",–
O=[N+]([O-])c1ccc(Cl)cc1NCC1CCCO1 (configuration not stated),"inconclusive: 0.103 µM [falling, full curve, poor fit]",–
CCC(C)C(NC(=O)c1ccccc1NC(=O)c1ccc(C)cc1)C(=O)O (configuration not stated),"inconclusive: 9.2 µM [activator, partial curve, poor fit]",–
C[C@H](NC(=O)c1ccco1)C(=O)Nc1ccc2c(c1)OCO2,"inconclusive: 16.4 µM [activator, partial curve, poor fit]",–
Cc1ccc(S(=O)(=O)NCC(=O)NCC(=O)N(C)Cc2ccc3ccccc3c2)cc1C,"inconclusive: 20.6 µM [falling, single point]",–
CSc1nc(N)nc(SCC(=O)Nc2ccc(Cl)cc2)c1C#N,active: 14.6 µM,–
Cc1cccc(N2CC(C(=O)Nc3ccc(S(=O)(=O)N4CCCCC4)cc3)CC2=O)c1C (configuration not stated),"inconclusive: 10.3 µM [falling, partial curve]",–
CC(OC(=O)C1CC(=O)N(Cc2ccco2)C1)C(=O)Nc1ccc(F)cc1Cl (configuration not stated),–,inactive: 0.53%
CCOC(=O)N1CCN(c2cc(N)c([N+](=O)[O-])cc2F)CC1,"inconclusive: 6.51 µM [falling, partial curve, poor fit]",–
Nc1[nH]n(-c2ccccc2)c(=O)c1N=Nc1ccc2c(c1)OCCO2,"inconclusive: 14.6 µM [activator, partial curve]",–

# Part of the list above in order of molar mass, descending.
Compound,Potency,"activity change, negative = inhibition"
CCOc1ccccc1-n1nnnc1SCC(=O)NC(=O)NCc1ccco1,"inconclusive: 18.4 µM [falling, partial curve, poor fit]",–
COc1ccc(C(=O)NC(=S)NNC(=O)c2ccccc2C)cc1,"inconclusive: 29.1 µM [falling, single point]",–
CCOC(=O)c1[nH]c(C)c(C(=O)Nc2ccc(C)c(F)c2)c1C,"inconclusive: 2.31 µM [falling, partial curve, poor fit]",–

# Further records:

Compound,Potency,"activity change, negative = inhibition"
Cc1ccc(-c2ccc(/C=N/NC(=O)CN3CCCC3)o2)cc1Cl,"inconclusive: 23.1 µM [activator, single point]",–
CSc1ncc(Sc2ccccc2)c(C(=O)O)n1,–,inactive: 0.799%
c1ccc(OCCSc2nnc3sc4ccccc4n23)cc1,"inconclusive: 32.6 µM [falling, single point]",–
O=C(CSc1nnc(-c2n[nH]c3ccccc23)n1-c1ccccc1)Nc1cccc(Cl)c1,–,inactive: -5.32%
Cc1ccc2[nH]c(=O)c(CN(CCc3ccccc3)Cc3nnnn3CC3CCCO3)cc2c1 (configuration not stated),–,inactive: 2.69%
Cc1ccc(S(=O)(=O)Nc2ccc3nc(C)oc3c2)cc1,"inconclusive: 11.6 µM [falling, partial curve]",–
O=C(Nc1ccc(-c2csc(Nc3ccccc3)n2)cc1)c1cc([N+](=O)[O-])cc(C(F)(F)F)c1,"inconclusive: 29.1 µM [falling, single point]",–
CCOc1ccc(/C=C/c2nc(C#N)c(NCCCOC)o2)cc1,–,inactive: -27.8%
CC1CN(C(=S)Nc2cccc(Cl)c2)CC(C)O1 (configuration not stated),"inconclusive: 6.51 µM [falling, partial curve, poor fit]",–
O=C(/C(=C/O)N=Nc1cccc(C(F)(F)F)c1)c1ccccc1,"inconclusive: 23.1 µM [falling, partial curve, poor fit]",–
CCc1nnc(NC(=O)c2ccc(-c3ccc(F)cc3)o2)s1,"inconclusive: 14.6 µM [falling, single point]",–
Cc1ccc(C)c(NC(=S)NCC(c2cccnc2)N2CCOCC2)c1 (configuration not stated),"inconclusive: 20.6 µM [activator, partial curve, poor fit]",–
Cc1nc(NC(=O)CSc2nnnn2Cc2ccccc2)sc1C,"inconclusive: 6.51 µM [activator, single point]",–
CC(C)(C)OC(=O)NCCCC[C@H](NC(=O)c1[nH]cnc1C(=O)Nc1ccc(CNC(=O)OC(C)(C)C)cc1)C(=O)OC(C)(C)C,"inconclusive: 25.9 µM [falling, single point]",–
O=C1N(c2ccccc2C(F)(F)F)O[C@@]1(c1ccccc1)C1CCCC1,"inconclusive: 36.6 µM [falling, single point]",–
CCOC(=O)c1cnc(SC)nc1Oc1cccc(NC(=O)c2cccc(Cl)c2Cl)c1,–,inactive: -14.9%
CCc1sc(C(=O)Nc2ccc(OC)c(S(=O)(=O)N3CCOCC3)c2)cc1C,"inconclusive: 14.6 µM [falling, partial curve]",–
COc1ccc(-c2cc(C(F)(F)F)n3nc(C(=O)N4CCCCC4)cc3n2)cc1,"inconclusive: 20.6 µM [falling, single point]",–
COC(=O)c1c(C)[nH]c(C(=O)NCc2ccco2)c1C,"inconclusive: 25.9 µM [activator, single point]",–
CCOC(=O)N1CCN(S(=O)(=O)c2ccc3c(c2)CCN3C(=O)CC)CC1,"inconclusive: 32.6 µM [falling, single point]",–
